According to US20020037903A1, “Use of pyrimidine endothelin antagonists in companion animals” (priority 2000, published 2002):

Settings: dog, in vivo

% of Kb at 24 hours following 0.5 mg/kg i.v. dose: 260%
Structure (SMILES): COc1ccccc1Oc1c(NS(=O)(=O)C=Cc2ccccc2)nc(-c2ncccn2)nc1OC [COMPOUND Y, N-[6-methoxy-5-(2-methoxyphenoxy)-2-(2-pyrimidinyl)-4-pyrimidinyl]-2-phenylethensulphonamide]
